The supplement of paper PMC7666118
This is one part of the list.

Protein sequences, listed by entry. Tags and fused reporters are not part of them. Lines headed by an entry give the natural chain unless they say otherwise; changes in a name come on top.
UniProt Q9HBR0: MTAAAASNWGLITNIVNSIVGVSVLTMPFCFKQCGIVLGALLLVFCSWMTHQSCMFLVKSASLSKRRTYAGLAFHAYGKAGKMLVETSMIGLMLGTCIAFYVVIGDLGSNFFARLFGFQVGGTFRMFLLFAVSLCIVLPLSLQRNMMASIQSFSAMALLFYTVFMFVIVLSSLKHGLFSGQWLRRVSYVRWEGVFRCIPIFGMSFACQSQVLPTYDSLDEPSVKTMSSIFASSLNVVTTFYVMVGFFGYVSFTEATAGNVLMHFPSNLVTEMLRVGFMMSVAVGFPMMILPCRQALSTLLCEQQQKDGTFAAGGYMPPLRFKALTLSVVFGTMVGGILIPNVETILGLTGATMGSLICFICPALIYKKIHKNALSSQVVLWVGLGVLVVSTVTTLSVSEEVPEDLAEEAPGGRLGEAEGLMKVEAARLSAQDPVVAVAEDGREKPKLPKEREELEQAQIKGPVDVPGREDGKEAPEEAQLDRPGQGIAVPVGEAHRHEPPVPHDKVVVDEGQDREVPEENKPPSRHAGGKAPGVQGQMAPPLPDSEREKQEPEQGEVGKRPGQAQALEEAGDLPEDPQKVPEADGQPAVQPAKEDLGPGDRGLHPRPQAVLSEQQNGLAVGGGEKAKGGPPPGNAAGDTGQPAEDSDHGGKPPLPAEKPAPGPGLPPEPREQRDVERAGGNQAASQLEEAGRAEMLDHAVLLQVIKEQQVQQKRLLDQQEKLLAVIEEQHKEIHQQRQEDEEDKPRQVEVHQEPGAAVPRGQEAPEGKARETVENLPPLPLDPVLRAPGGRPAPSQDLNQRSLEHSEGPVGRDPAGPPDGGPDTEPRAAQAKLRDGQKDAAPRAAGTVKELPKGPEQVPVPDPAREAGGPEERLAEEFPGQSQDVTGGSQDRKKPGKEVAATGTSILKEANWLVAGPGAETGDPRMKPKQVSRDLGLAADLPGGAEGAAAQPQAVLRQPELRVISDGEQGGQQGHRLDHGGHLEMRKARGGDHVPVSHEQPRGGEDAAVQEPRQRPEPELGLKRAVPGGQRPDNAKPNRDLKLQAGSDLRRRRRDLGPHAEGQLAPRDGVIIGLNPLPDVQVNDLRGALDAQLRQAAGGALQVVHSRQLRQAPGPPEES
UniProt Q15393: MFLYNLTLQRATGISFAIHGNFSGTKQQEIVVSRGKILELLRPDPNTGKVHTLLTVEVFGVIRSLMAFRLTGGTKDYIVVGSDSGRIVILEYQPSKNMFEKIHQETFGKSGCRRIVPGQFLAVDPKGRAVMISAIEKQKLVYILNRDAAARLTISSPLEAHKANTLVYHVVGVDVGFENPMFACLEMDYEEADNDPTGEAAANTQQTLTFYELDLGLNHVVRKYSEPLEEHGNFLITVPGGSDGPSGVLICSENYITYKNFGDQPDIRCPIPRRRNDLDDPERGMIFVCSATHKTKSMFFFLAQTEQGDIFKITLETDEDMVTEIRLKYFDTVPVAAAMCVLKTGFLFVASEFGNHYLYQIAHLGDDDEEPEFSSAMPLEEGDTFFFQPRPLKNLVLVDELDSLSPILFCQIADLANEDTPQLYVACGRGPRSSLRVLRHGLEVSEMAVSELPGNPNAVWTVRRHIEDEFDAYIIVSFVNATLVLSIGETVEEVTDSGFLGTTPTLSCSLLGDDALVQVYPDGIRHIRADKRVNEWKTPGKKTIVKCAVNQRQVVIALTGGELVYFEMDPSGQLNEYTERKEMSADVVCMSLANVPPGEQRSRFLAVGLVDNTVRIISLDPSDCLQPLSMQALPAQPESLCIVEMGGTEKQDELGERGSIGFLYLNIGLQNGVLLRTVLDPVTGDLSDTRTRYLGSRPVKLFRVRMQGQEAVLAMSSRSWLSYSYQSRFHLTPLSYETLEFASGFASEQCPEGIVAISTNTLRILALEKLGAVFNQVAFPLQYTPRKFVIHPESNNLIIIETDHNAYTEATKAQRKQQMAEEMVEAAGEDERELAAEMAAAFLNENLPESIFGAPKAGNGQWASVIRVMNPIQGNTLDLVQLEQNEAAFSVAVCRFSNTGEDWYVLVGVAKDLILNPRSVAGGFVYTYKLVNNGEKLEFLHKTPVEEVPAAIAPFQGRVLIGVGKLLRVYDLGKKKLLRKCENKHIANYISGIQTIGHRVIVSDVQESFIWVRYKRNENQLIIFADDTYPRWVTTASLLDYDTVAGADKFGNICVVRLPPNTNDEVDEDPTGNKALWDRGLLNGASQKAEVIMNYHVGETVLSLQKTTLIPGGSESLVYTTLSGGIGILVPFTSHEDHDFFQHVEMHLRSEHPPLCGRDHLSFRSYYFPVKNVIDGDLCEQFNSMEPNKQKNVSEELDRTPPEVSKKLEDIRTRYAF
UniProt O95470: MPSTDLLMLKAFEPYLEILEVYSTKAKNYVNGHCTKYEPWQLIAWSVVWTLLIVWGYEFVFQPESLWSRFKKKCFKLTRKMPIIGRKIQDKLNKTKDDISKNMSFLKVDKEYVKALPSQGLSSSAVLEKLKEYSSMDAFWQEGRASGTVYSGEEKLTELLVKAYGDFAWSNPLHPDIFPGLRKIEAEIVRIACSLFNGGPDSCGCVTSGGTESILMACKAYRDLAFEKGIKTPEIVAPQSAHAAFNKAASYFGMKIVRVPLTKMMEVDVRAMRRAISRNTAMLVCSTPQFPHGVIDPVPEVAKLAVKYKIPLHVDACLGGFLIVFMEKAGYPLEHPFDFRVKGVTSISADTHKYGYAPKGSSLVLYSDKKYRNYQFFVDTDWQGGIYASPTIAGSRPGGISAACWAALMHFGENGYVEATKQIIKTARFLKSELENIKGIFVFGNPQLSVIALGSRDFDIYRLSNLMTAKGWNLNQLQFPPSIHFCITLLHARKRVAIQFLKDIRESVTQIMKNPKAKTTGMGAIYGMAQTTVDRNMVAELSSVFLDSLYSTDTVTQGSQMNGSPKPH
UniProt Q15459: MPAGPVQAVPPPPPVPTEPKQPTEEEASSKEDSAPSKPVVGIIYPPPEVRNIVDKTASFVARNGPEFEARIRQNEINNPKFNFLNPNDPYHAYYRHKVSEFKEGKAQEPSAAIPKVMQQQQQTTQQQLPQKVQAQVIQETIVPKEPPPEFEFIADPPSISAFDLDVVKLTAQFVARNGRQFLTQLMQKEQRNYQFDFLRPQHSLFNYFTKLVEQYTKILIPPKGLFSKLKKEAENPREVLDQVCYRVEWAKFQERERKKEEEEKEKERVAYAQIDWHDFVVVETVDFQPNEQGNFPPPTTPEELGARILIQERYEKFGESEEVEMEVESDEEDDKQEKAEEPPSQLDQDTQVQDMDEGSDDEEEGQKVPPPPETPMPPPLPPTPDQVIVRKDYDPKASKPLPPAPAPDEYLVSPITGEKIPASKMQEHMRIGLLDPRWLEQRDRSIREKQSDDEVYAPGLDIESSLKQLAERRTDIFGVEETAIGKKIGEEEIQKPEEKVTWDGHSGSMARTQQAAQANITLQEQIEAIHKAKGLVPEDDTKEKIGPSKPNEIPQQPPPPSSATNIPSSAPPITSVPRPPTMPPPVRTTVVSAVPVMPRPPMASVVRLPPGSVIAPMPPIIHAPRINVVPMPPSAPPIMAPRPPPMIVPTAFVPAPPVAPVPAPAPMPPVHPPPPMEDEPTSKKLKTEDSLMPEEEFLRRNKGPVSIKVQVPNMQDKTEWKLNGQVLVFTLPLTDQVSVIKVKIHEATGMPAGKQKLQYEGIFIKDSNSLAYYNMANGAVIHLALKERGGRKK
UniProt O75995: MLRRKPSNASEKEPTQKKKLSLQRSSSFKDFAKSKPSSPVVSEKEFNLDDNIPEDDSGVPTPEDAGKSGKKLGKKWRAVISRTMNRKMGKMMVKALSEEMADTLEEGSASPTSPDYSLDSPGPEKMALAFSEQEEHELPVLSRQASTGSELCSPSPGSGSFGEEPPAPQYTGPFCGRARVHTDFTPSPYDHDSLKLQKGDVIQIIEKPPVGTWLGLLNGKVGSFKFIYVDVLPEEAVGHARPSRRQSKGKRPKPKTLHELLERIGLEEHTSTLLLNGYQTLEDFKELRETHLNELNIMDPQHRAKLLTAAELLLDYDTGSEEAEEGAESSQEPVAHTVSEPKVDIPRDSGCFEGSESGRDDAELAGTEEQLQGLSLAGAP
UniProt P55735: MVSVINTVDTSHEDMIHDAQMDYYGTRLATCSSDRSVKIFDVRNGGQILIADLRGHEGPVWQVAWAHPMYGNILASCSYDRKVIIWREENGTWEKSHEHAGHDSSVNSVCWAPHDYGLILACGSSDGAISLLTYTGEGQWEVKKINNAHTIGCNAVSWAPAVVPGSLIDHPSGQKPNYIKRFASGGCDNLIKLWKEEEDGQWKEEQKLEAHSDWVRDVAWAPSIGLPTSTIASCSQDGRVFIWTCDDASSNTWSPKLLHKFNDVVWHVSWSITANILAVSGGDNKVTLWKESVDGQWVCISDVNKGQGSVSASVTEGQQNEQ
UniProt O43290: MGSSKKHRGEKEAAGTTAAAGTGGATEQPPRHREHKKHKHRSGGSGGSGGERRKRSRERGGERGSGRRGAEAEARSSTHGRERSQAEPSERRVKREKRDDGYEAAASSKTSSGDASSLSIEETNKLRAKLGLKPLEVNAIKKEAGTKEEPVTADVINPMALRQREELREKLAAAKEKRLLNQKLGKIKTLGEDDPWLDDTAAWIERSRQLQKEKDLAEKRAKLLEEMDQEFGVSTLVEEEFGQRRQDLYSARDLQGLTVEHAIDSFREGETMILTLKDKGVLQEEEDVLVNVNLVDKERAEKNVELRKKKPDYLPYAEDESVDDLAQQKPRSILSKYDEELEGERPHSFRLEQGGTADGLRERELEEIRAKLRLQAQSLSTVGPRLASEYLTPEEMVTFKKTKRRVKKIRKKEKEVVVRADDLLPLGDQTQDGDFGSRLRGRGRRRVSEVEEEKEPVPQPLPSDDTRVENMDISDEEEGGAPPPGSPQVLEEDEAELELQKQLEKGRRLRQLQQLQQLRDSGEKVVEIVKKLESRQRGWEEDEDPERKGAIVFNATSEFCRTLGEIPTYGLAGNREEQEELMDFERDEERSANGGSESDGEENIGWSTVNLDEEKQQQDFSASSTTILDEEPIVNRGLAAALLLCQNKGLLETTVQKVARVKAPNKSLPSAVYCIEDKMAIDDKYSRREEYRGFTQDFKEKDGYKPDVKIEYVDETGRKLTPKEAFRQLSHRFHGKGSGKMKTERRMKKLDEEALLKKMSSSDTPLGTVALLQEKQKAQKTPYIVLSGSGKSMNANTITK
UniProt Q12904: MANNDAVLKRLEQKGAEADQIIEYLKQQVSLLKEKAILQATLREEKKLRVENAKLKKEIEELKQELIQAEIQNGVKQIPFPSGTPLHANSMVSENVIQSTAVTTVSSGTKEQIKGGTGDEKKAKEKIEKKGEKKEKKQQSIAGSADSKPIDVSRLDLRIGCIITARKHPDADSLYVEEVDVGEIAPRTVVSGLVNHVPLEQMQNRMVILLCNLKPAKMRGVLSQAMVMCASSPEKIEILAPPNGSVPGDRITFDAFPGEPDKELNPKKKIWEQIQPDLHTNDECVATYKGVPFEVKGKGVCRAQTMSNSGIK
UniProt O43826: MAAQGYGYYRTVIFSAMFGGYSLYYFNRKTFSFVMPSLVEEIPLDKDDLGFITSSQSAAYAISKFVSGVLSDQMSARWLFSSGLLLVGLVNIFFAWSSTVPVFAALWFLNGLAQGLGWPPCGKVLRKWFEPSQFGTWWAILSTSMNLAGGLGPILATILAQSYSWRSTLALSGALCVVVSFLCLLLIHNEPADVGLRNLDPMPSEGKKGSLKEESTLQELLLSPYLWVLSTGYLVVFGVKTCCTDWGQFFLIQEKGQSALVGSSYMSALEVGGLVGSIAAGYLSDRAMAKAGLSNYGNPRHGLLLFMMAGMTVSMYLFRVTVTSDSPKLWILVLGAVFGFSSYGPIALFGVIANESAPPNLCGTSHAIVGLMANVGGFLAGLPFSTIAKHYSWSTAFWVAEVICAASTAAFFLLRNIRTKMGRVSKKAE
UniProt Q6P1M0: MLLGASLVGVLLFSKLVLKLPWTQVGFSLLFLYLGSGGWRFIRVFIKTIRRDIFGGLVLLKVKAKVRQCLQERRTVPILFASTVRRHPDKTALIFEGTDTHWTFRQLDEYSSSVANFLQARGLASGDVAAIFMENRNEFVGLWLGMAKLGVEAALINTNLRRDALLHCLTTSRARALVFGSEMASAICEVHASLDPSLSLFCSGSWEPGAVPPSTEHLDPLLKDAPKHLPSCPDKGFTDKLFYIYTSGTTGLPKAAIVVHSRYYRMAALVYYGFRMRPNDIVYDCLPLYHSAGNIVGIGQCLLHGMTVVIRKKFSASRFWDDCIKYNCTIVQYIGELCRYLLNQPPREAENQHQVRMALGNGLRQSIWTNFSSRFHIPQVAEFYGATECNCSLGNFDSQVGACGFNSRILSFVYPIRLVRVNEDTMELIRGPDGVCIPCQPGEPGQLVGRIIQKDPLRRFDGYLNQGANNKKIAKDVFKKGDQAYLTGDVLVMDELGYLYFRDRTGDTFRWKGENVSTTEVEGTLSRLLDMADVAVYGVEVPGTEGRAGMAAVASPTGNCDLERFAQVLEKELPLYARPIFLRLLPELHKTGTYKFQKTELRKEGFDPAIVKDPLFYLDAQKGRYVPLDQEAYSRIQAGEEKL

compound: COc1ccc(Cn2ccc3ccc(C(=O)NO)cc32)cc1; assay: dose-dependent thermal stabilisation call (2D-TPP, DLPTP, 10% FDR) (binary (1 = stabilised)); higher = stabilised by the compound; conditions: system: HL-60 intact cells; concentration range 0.04-10 µM

Target | dose-dependent thermal stabilisation call
SLC39A14 (UniProt Q15043) | inactive: 0
SLC19A1 (UniProt P41440) | inactive: 0
SLC38A10 (UniProt Q9HBR0) | inactive: 0
SCFD2 (UniProt Q8WU76) | inactive: 0
SLC25A25 (UniProt Q6KCM7) | inactive: 0
SCAP (UniProt Q12770) | inactive: 0
SDAD1 (UniProt Q9NVU7) | inactive: 0
SLC5A6 (UniProt Q9Y289) | inactive: 0
SLC17A5 (UniProt Q9NRA2) | inactive: 0
SF3B3 (UniProt Q15393) | inactive: 0
SGPL1 (UniProt O95470) | inactive: 0
SF3A1 (UniProt Q15459) | inactive: 0
SC4MOL (UniProt Q15800) | inactive: 0
SCYL3 (UniProt Q8IZE3) | active: 1
SLC2A1 (UniProt P11166) | inactive: 0
SASH3 (UniProt O75995) | inactive: 0
SFRS10 (UniProt P62995) | inactive: 0
SERBP1 (UniProt Q8NC51) | inactive: 0
SIRT1 (UniProt Q96EB6) | inactive: 0

Target | dose-dependent thermal stabilisation call
SH3KBP1 (UniProt Q96B97) | inactive: 0
SLC15A4 (UniProt Q8N697) | inactive: 0
SLC23A2 (UniProt Q9UGH3) | inactive: 0
SLC35A1 (UniProt P78382) | inactive: 0
SHC1 (UniProt P29353) | inactive: 0
SEC13 (UniProt P55735) | inactive: 0
SEPHS2 (UniProt Q99611) | inactive: 0
SART1 (UniProt O43290) | inactive: 0
SDCCAG10 (UniProt Q6UX04) | inactive: 0
SCYE1 (UniProt Q12904) | inactive: 0
SLC37A4 (UniProt O43826) | inactive: 0
SEC11C (UniProt Q9BY50) | inactive: 0
SLC11A2 (UniProt P49281) | inactive: 0
SHOC2 (UniProt Q9UQ13) | inactive: 0
SEC24C (UniProt P53992) | inactive: 0
SLC7A5 (UniProt Q01650) | inactive: 0
SLC27A4 (UniProt Q6P1M0) | inactive: 0
SIRT5 (UniProt Q9NXA8) | inactive: 0

Two records drawn at random from those above:
Target | dose-dependent thermal stabilisation call
SLC37A4 (UniProt O43826) | inactive: 0
SH3KBP1 (UniProt Q96B97) | inactive: 0
